No constants are given. Whether binding was seen depends on the method and setting. For some of these results: Where a sequence is shown, tags or fusion partners need not be part of it. Values belong to the binder of their own block, whether it stands above or below them.
Columns and labels:
PTPN21 PTP-EGFP = target: T1, PTPN21 PTP-EGFP (UniProt Q16825 872-1174); assay: MST; PTP-EGFP fixed at 80 nM, FERM titrated from 300 μM to 0.09 nM; 20 mM Hepes pH 7.0, 150 mM NaCl, 0.3 mM TCEP, 1.5 mM BSA; mutants measured similarly; both purified
T1 construct: also called WT PTP-EGFP; source: E. coli Rosetta (DE3), purified (as the untagged domain); not shown: His-sumo, N-terminal, cleaved; EGFP, C-terminal, kept
T1 sequence (looked up): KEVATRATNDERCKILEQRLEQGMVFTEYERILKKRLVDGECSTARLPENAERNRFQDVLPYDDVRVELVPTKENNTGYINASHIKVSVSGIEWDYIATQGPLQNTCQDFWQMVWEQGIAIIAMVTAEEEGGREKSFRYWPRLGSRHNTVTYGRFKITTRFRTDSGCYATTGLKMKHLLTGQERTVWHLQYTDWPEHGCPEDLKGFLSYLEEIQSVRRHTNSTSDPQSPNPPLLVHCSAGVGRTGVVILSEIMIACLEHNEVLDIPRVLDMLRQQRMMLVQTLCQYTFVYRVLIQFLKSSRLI

[1] = target: T2, PTPN21 PTP R1089A R1031A mutant (MST) (UniProt Q16825); assay: as above
T2 sequence: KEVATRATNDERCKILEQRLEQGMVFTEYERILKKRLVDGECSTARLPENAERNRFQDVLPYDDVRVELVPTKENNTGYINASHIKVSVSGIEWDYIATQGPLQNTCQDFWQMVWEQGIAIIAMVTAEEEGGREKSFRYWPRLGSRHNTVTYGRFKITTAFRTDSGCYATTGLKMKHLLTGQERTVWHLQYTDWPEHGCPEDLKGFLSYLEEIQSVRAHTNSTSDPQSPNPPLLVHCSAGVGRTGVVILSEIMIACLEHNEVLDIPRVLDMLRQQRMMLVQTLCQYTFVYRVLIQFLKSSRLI

[2] = target: T3, GST-FERM E47A E57A mutant (UniProt Q16825); assay: pull-down; GST-FERM (60 μM) with an equal molar amount of PTP, glutathione-agarose beads, 20 mM tris-HCl pH 8.0, 75 mM NaCl, 0.3 mM TCEP, 2% glycerol, 4°C; both purified
T3 sequence: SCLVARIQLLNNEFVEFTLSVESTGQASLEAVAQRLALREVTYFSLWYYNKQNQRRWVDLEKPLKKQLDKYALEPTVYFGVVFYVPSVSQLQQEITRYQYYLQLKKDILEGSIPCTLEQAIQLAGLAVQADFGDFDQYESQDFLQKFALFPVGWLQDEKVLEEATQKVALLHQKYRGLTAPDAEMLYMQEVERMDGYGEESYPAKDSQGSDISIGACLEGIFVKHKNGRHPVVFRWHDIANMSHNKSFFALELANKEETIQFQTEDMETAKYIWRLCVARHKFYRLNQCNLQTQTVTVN

[3] = target: T4, GST-tagged PTPN21 FERM domain (residues 21 to 319) (UniProt Q16825); assay: as above
T4 sequence: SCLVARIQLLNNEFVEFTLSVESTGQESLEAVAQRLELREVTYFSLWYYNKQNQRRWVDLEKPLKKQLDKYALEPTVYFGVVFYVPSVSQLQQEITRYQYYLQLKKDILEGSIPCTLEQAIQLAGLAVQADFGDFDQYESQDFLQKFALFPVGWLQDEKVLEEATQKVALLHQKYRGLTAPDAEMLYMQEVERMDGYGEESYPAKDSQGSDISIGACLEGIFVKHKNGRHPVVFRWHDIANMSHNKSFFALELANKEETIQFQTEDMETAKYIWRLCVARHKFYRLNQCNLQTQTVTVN

binding [2]: no binding
B3: PTPN21 PTP domain (residues 872 to 1174) (domain or fragment)
chain: KEVATRATNDERCKILEQRLEQGMVFTEYERILKKRLVDGECSTARLPENAERNRFQDVLPYDDVRVELVPTKENNTGYINASHIKVSVSGIEWDYIATQGPLQNTCQDFWQMVWEQGIAIIAMVTAEEEGGREKSFRYWPRLGSRHNTVTYGRFKITTRFRTDSGCYATTGLKMKHLLTGQERTVWHLQYTDWPEHGCPEDLKGFLSYLEEIQSVRRHTNSTSDPQSPNPPLLVHCSAGVGRTGVVILSEIMIACLEHNEVLDIPRVLDMLRQQRMMLVQTLCQYTFVYRVLIQFLKSSRLI

binding [3]: no binding
B4: PTPN21 PTP R1089A R1031A mutant (GST pulldown) (domain or fragment, UniProt Q16825 872-1174)
chain: KEVATRATNDERCKILEQRLEQGMVFTEYERILKKRLVDGECSTARLPENAERNRFQDVLPYDDVRVELVPTKENNTGYINASHIKVSVSGIEWDYIATQGPLQNTCQDFWQMVWEQGIAIIAMVTAEEEGGREKSFRYWPRLGSRHNTVTYGRFKITTAFRTDSGCYATTGLKMKHLLTGQERTVWHLQYTDWPEHGCPEDLKGFLSYLEEIQSVRAHTNSTSDPQSPNPPLLVHCSAGVGRTGVVILSEIMIACLEHNEVLDIPRVLDMLRQQRMMLVQTLCQYTFVYRVLIQFLKSSRLI

Continued, binder first:

B1: PTPN21 FERM E47A E57A mutant (MST) (domain or fragment, UniProt Q16825 21-319)
chain: SCLVARIQLLNNEFVEFTLSVESTGQASLEAVAQRLALREVTYFSLWYYNKQNQRRWVDLEKPLKKQLDKYALEPTVYFGVVFYVPSVSQLQQEITRYQYYLQLKKDILEGSIPCTLEQAIQLAGLAVQADFGDFDQYESQDFLQKFALFPVGWLQDEKVLEEATQKVALLHQKYRGLTAPDAEMLYMQEVERMDGYGEESYPAKDSQGSDISIGACLEGIFVKHKNGRHPVVFRWHDIANMSHNKSFFALELANKEETIQFQTEDMETAKYIWRLCVARHKFYRLNQCNLQTQTVTVN
binding (PTPN21 PTP-EGFP): no binding

B2: PTPN21 FERM domain (residues 21 to 319) (domain or fragment, UniProt Q16825 21-319, looked up)
chain: SCLVARIQLLNNEFVEFTLSVESTGQESLEAVAQRLELREVTYFSLWYYNKQNQRRWVDLEKPLKKQLDKYALEPTVYFGVVFYVPSVSQLQQEITRYQYYLQLKKDILEGSIPCTLEQAIQLAGLAVQADFGDFDQYESQDFLQKFALFPVGWLQDEKVLEEATQKVALLHQKYRGLTAPDAEMLYMQEVERMDGYGEESYPAKDSQGSDISIGACLEGIFVKHKNGRHPVVFRWHDIANMSHNKSFFALELANKEETIQFQTEDMETAKYIWRLCVARHKFYRLNQCNLQTQTVTVN
notes: also called FERM^PTPN21; source: E. coli Rosetta (DE3), purified (Ni-NTA, source Q, Superdex 200); not shown: His-sumo, N-terminal, cleaved
binding [1]: no binding
